Assay [1] deals with Caenorhabditis elegans ST65 (ncIs13[ajm-1::GFP]). In words: 'Larvae/adult' ratio (MetaXpress pharynx counts; minimum value 1, so it appears to include adults; growth inhibition read-out). The settings on record: 10 µM; exposure time: 4-5 days from L1 at 20°C.
Assay [2] has the same test system. In words: vulvae per adult worm (MAPK/ERK-dependent vulval induction, MetaXpress) (vulvae/adult); higher = more vulval induction (less MAPK/ERK inhibition). The conditions noted are these: 10 µM; exposure time: 4-5 days from L1 at 20°C.

Where a name gives a salt, the structure may show the parent alone. The list shows a part of the results. Single values are uncertain, as repeats are few or missing.

Consider `CNC(=O)[C@@H](NC(=O)[C@H](CC(C)C)[C@H](O)C(=O)NO)C(C)(C)C` [Marimastat (BB-2516)], for which the “'Larvae/adult' ratio” value in assay [1] was 1.41. In addition, in assay [2], the “vulvae per adult worm” value was found to be 0.957.
Taken in the same sequence, the figures for `Nc1ccccc1NC(=O)c1ccc(CNC(=O)OCc2cccnc2)cc1` [Entinostat (MS-275)] were 1.72 and 0.755.
Taken in the same sequence, the figures for `CCn1c(=O)c(-c2ccc(Cl)cc2Cl)cc2cnc(Nc3ccc(N4CCNCC4)c(F)c3)nc21` were 1.66 and 0.895.
In the case of `CC1(COc2ccc3c(c2)ncn3-c2ccc3cccc(N4CCC(N)CC4)c3n2)COC1`, the “'Larvae/adult' ratio” value in assay [1] is 1.76. Further, in assay [2], the “vulvae per adult worm” value came to 0.892.
Take `N#Cc1ccnc(N2C(=O)CC[C@H]2C(=O)N(c2cncc(F)c2)[C@H](C(=O)NC2CC(F)(F)C2)c2ccccc2Cl)c1` [Ivosidenib (AG-120)]: the “'Larvae/adult' ratio” value in assay [1] is 4.47. In addition, the “vulvae per adult worm” value in assay [2] was determined as 1.6.
Taken in the same sequence, the figures for `Cc1cn(-c2cc(NC(=O)c3ccc(C)c(Nc4nccc(-c5cccnc5)n4)c3)cc(C(F)(F)F)c2)cn1` [Nilotinib (AMN-107)] were 1.8 and 0.829.
Taken in the same sequence, the figures for `COc1cc(N2CCC(N3CCN(C)CC3)CC2)ccc1Nc1ncnc(Nc2ccccc2S(=O)(=O)C(C)C)n1` were 1.9 and 1.05.
In the case of `CNC(=O)c1ccc(N2C(=S)N(c3cnc(C#N)c(C(F)(F)F)c3)C(=O)C23CCC3)cc1F`, the “'Larvae/adult' ratio” value in assay [1] was found to be 2.17. Moreover, in assay [2], the “vulvae per adult worm” value came out at 0.833.
As for `CCN(CC)CCCC(C)Nc1c2ccc(Cl)cc2nc2ccc(OC)cc12` (configuration not stated) [Quinacrine Dihydrochloride Dihydrate], in assay [1], the “'Larvae/adult' ratio” value is 5.51. For the same compound, the “vulvae per adult worm” value in assay [2] is 0.721.
In the case of `NS(=O)(=O)NCCNc1nonc1/C(=N/O)Nc1ccc(F)c(Br)c1`, in assay [1], the “'Larvae/adult' ratio” value stood at 3.32. In assay [2], the “vulvae per adult worm” value was determined as 1.2.
On the same counts, the results for `CCCCCCCCCCCCCCCCCCOP(=O)([O-])OC1CC[N+](C)(C)CC1` [Perifosine (KRX-0401)] are 1.79 and 0.581.

The record behind these values is the supplement of paper PMC11409438.
